Some results were stated once for a whole list of compounds, not compound by compound.
Tested on: HUH7 hepatocellular carcinoma cell line
Test: OTC protein expression in transfected HUH7 cells, Western blot
Type: cell-based, human
Settings: 24 hours post-transfection, CO3 and CO7 compared to WT and CO1
Text: The wt-hOTC was codon-optimized (CO) with different algorithms. The optimization process is aimed at improving translation and stability of the OTC mRNA by changing the nucleotide sequence while keeping the amino acid primary sequence unvaried. The wild-type OTC cDNA sequence and the codon-optimized (CO) LW4 sequence from WO 2015/138357 patent A2 (Wang L., Wilson J. M.) were also synthesized, to be used as comparison control (CO1). The nucleotide sequence of the different CO cDNAs differs with a range of 30-20% from the WT cDNA sequence. The vectors were then packaged into the AAV8 serotype and used to transduce Huh7 cells. Huh7 cells, co-transfected with the OTC constructs and the pGG2-eGFP plasmid (to normalize for transfection efficiency), were used to generate total RNA and proteins. mRNA, protein, and activity levels were analyzed using qRT-PCR and Western blotting.
The human hepatocellular carcinoma cell line HUH7 was used to evaluate the expression levels of AAV8-hOTC-CO constructs. […] Twenty-four hours post-transfection, total protein lysates were prepared and analyzed for OTC expression by Western blot analysis.

B1: CO18: Chimeric hOTC sequence based on shuffling the conserved regions between CO1, CO3 and CO6, SEQ ID NO:11 (nucleic acid)
DNA: GTCGACGCCGCCACCATGCTGTTCAACCTGCGCATCCTGCTGAACAACGCCGCCTTCCGCAACGGCCACAACTTCATGGTCAGAAACTTCCGCTGCGGCCAGCCCCTGCAAAACAAAGTGCAGCTGAAGGGCCGCGACCTGCTGACCCTGAAGAACTTCACCGGCGAGGAGATCAAATACATGCTGTGGCTGAGCGCCGATCTGAAGTTCAGAATCAAGCAGAAGGGCGAGTACCTGCCACTGCTGCAAGGCAAGAGCCTGGGCATGATCTTCGAGAAGCGCAGCACCCGCACCCGCCTGAGCACCGAGACCGGCTTCGCTCTGCTGGGAGGCCACCCTTGCTTCCTGACAACCCAGGACATCCACCTGGGCGTGAACGAGAGCCTGACCGACACCGCCCGCGTGCTGAGCAGCATGGCCGACGCCGTGCTGGCTCGGGTGTACAAACAGTCCGACCTGGATACCCTGGCCAAGGAAGCTTCCATCCCCATCATCAACGGCCTGAGCGACCTGTACCACCCCATCCAGATCCTGGCCGACTACCTGACCCTGCAGGAGCACTACAGCAGCCTGAAGGGCCTGACCCTGAGCTGGATCGGCGACGGCAACAATATCCTGCACTCTATTATGATGTCTGCCGCCAAGTTTGGAATGCACCTGCAGGCTGCTACCCCTAAAGGCTACGAACCCGATGCCTCTGTGACAAAGCTGGCTGAACAGTACGCCAAAGAGAACGGCACAAAGCTGCTGCTGACCAACGACCCTCTGGAGGCCGCTCACGGAGGCAACGTGCTGATCACCGACACCTGGATCTCTATGGGCCAGGAGGAAGAGAAGAAGAAGCGGCTGCAGGCCTTCCAGGGCTACCAGGTCACCATGAAAACCGCTAAGGTGGCCGCCAGCGATTGGACCTTCCTGCACTGCCTGCCCCGCAAGCCCGAGGAGGTGGACGACGAGGTGTTCTACAGCCCCCGCAGCCTGGTGTTCCCCGAGGCCGAGAACCGCAAGTGGACTATTATGGCCGTGATGGTGTCCCTGCTGACTGATTATTCTCCTCAACTGCAGAAACCTAAATTTTGATAAGAATTC
- OTC protein expression, fold higher than WT construct: 5-6 fold
